No constants are given. Whether binding was seen depends on the method and setting. A result given as binding can be weak or reduced; the word gives no strength.

By UniProt entry, the sequences of proteins in these tests, tags left out. Where a name states a change or a piece, a line headed by the entry shows the natural chain unless it says otherwise.
UniProt Q8EJI6: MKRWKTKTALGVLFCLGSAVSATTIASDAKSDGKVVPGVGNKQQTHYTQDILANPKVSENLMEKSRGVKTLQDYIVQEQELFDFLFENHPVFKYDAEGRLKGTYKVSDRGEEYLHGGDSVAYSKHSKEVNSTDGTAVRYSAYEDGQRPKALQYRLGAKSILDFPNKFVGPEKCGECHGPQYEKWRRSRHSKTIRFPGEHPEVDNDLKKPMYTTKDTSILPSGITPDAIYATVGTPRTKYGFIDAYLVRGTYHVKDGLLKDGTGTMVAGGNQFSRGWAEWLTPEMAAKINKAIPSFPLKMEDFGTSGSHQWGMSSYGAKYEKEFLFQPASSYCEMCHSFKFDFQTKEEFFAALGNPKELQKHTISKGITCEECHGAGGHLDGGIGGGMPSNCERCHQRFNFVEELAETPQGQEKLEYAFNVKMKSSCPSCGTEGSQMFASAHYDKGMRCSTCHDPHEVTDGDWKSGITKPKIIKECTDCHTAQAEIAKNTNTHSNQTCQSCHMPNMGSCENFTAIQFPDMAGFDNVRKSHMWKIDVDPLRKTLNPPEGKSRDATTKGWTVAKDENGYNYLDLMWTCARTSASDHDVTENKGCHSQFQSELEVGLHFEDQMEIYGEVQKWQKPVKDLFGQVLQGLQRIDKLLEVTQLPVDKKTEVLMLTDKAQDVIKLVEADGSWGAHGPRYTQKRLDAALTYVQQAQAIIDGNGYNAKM
UniProt Q8EK38: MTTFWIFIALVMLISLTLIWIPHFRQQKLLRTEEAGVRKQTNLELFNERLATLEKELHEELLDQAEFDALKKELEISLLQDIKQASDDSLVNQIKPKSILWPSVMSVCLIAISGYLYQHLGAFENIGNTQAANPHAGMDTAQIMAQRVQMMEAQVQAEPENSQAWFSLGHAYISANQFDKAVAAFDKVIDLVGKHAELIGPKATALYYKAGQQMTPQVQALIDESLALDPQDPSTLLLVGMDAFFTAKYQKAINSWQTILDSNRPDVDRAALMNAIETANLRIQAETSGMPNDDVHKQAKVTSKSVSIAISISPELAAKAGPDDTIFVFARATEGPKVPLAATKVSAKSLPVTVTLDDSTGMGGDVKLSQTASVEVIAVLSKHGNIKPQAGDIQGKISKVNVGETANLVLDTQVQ

Our source for the binding values is publication PMC6976685.

For the test, the target named is SirA sulfite reductase (SO_0479) (Shewanella oneidensis MR-1) (UniProt Q8EJI6). Briefly: two-hybrid; BacterioMatch II bacterial two-hybrid in the E. coli reporter strain; bait in pBT, target in pTRG, both orientations; serial dilutions spotted on M9, M9 + 3AT and M9 + 3AT with 12.5 µg/mL streptomycin, 37 °C for up to 48 hrs.

In the case of “CcmI apocytochrome c chaperone (SO_0265) (from UniProt Q8EK38)”, the binding result is “binds”. For the substance “SirG apocytochrome c chaperone (SO_0482) (from UniProt Q8EJI3)”, the binding entry is “binds”.
